Results are given in words; binding and its absence hold for the method and conditions named. For some of these results: In cells and extracts the contact can be indirect. Some binding calls cover weakened binding; strength is not graded here. For some of these results: Sequences can lack the tags named with a protein. Values belong to the molecule of their own block, whether it stands above or below them.
Experiments:
[1] = target: RAB18-FLAG (UniProt Q9NP72); experiment: co-IP; HEK293T cells co-transfected for 24 h; lysis buffer PBS, 1% NP-40, 5 mM EDTA, 5 mM EGTA; Sepharose with IgG, anti-FLAG or anti-HA mAb for 4 h; immunoblot
[2] = target: GST-RAB18 (UniProt Q9NP72); experiment: pull-down; in vitro affinity isolation: GST-tag purification resin, 1 nM His-tagged protein with 1 nM GST fusion protein in 500 μL PBS + 1% Triton X-100, 45 min at 4°C; five washes; immunoblot; both purified
[3] = target: GST-HSPA8 (UniProt P11142); experiment: as above
[4] = target: RAB18-HA (UniProt Q9NP72); experiment: co-IP; HEK293T cells co-transfected for 24 h; lysis buffer PBS, 1% NP-40, 5 mM EDTA, 5 mM EGTA; Sepharose with IgG, anti-FLAG or anti-HA mAb for 4 h; immunoblot

Amino acid sequences for entries named in this document (tags omitted).
UniProt Q9NP72: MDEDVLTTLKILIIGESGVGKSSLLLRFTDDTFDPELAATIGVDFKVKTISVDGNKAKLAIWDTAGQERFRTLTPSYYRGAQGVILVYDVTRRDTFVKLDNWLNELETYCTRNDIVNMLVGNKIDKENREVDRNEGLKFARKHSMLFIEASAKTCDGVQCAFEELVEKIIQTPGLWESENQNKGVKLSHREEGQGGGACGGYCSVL
UniProt P11142: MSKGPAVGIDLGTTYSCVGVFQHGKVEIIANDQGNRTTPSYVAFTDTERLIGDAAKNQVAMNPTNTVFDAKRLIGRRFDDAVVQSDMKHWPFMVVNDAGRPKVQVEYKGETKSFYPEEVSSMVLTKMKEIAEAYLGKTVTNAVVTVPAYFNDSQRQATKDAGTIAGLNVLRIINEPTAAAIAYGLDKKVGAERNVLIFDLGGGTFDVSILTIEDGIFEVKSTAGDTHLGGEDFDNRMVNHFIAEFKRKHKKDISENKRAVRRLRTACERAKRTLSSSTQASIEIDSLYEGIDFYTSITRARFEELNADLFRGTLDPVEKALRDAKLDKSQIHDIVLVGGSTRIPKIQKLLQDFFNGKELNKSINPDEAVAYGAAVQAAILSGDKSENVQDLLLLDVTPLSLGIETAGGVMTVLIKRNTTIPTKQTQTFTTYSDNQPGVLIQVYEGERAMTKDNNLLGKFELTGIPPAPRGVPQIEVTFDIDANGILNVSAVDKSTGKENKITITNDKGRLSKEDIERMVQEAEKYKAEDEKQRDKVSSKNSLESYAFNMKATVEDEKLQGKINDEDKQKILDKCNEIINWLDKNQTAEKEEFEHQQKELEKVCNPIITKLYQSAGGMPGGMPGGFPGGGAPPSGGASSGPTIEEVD

Molecule: His-SUMO-RAB18 (from UniProt Q9NP72 1-206)
binding [3]: binds

B1: PLIN2 (aa 1–251)-FLAG (domain or fragment, UniProt Q99541 1-251)
chain: MASVAVDPQPSVVTRVVNLPLVSSTYDLMSSAYLSTKDQYPYLKSVCEMAENGVKTITSVAMTSALPIIQKLEPQIAVANTYACKGLDRIEERLPILNQPSTQIVANAKGAVTGAKDAVTTTVTGAKDSVASTITGVMDKTKGAVTGSVEKTKSVVSGSINTVLGSRMMQLVSSGVENALTKSELLVEQYLPLTEEELEKEAKKVEGFDLVQKPSYYVRLGSLSTKLHSRAYQQALSRVKEAKQKSQQTIS
binding [4]: no binding

Second part, the molecule after the results:

binding [1]: binds
Molecule: HSPA8-HA (from UniProt P11142 1-646)

binding [2]: binds
Molecule: His-SUMO-HSPA8 (from UniProt P11142 1-646)
